Results taken from article PMC11867528.
Results are given in words; binding and its absence hold for the method and conditions named. For some assays here: Binding seen in cells or lysates may run through a third protein. Some entries that bind do so weakly or less than the wild type. For some assays here: Where a sequence is shown, tags or fusion partners need not be part of it.

By UniProt entry, the sequences of proteins in these tests, tags left out.
UniProt P12504: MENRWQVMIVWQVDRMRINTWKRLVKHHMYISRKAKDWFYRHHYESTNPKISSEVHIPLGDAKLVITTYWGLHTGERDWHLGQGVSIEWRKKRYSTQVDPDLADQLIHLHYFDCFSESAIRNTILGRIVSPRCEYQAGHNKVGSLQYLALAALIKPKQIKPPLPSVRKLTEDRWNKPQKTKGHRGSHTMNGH
UniProt Q9HC16: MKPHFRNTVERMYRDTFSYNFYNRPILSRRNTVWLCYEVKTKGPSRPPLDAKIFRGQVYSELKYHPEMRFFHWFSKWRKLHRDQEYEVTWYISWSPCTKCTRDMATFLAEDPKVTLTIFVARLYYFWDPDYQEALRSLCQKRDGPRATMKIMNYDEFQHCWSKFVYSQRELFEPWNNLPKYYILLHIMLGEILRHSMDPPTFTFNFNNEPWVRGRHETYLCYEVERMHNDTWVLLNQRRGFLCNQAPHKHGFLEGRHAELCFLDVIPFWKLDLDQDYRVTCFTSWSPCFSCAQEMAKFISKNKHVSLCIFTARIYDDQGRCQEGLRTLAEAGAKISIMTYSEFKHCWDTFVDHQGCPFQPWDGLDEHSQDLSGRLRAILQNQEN

Key:
[1] = molecular target: T1, DDX52 (DExD-box helicase 52) (human (endogenous in Jurkat J6)) (UniProt Q9Y2R4); test: co-IP; Jurkat J6 cells infected with HIV-1 NL4.3 at 0.5 MOI, harvested 48 hpi; lysates precleared with IgG, primary antibody (DDX52, Vif or A3G) overnight at 4 °C, Agarose A/G beads 4 h; washed thrice with 0.1% NP40 in 1X PBS; immunoblot
T1 sequence: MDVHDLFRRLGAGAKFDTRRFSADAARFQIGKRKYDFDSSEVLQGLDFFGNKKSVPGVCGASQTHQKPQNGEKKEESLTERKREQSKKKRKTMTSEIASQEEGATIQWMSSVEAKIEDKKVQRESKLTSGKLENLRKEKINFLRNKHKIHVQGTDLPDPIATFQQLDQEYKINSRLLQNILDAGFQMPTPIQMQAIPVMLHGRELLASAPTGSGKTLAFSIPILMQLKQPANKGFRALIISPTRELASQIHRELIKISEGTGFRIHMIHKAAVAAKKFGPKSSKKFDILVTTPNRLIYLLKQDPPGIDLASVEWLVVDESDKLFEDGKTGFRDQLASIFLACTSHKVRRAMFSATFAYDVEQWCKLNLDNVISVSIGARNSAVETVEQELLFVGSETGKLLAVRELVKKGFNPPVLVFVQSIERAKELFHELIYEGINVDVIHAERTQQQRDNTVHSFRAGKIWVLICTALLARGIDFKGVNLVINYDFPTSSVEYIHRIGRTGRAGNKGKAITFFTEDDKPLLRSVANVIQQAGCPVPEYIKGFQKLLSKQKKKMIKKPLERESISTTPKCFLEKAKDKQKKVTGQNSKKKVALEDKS

MBP-Vif (HIV-1) = MBP-Vif (HIV-1) (UniProt P12504); test: pull-down; MBP-Vif bound to MBP affinity resin, incubated with purified GST or GST-DDX52 for 6 h at 4 °C; washed thrice with 0.1% NP40 in 1X PBS; eluted with MBP elution buffer; immunoblot with GST and MBP antibodies; both purified

APOBEC3G (from UniProt Q9HC16 1-384) was tested, and the binding [1] was “binds”.

B1: GST-DDX52 (protein, UniProt Q9Y2R4 1-599)
chain: T1 sequence
For B1, the binding (MBP-Vif (HIV-1)) was “binds”.
